Laboratory results reported in PubChem BioAssay AID2662 (National Center for Advancing Translational Sciences (NCATS), 2010).
In all, about 290,000 compounds went through this assay and about 110 (0.038%) were called active. The inconclusive results got no clear call from the source; some entries with a clear call stand among them for comparison. The call rests on the fitted dose curve; in most records, active means well fitted inhibition curve with a large enough effect in the polarisation, with a control signal flat (not every such curve was filed as active); inconclusive means small, poorly fitted or top-dose-only effect, or effect the other way, or a change in a side signal; inactive means no such curve, though single readings can be large or run the other way; the % refers to the polarisation. Potencies beside an inconclusive call are fits to weak or partial responses and may not hold up. “Side channel” marks fits to a control or component signal instead of the main read-out.

Sequences of proteins named here, by UniProt entry; tags and fusion partners are left off.
UniProt Q03164, whole entry, looked up: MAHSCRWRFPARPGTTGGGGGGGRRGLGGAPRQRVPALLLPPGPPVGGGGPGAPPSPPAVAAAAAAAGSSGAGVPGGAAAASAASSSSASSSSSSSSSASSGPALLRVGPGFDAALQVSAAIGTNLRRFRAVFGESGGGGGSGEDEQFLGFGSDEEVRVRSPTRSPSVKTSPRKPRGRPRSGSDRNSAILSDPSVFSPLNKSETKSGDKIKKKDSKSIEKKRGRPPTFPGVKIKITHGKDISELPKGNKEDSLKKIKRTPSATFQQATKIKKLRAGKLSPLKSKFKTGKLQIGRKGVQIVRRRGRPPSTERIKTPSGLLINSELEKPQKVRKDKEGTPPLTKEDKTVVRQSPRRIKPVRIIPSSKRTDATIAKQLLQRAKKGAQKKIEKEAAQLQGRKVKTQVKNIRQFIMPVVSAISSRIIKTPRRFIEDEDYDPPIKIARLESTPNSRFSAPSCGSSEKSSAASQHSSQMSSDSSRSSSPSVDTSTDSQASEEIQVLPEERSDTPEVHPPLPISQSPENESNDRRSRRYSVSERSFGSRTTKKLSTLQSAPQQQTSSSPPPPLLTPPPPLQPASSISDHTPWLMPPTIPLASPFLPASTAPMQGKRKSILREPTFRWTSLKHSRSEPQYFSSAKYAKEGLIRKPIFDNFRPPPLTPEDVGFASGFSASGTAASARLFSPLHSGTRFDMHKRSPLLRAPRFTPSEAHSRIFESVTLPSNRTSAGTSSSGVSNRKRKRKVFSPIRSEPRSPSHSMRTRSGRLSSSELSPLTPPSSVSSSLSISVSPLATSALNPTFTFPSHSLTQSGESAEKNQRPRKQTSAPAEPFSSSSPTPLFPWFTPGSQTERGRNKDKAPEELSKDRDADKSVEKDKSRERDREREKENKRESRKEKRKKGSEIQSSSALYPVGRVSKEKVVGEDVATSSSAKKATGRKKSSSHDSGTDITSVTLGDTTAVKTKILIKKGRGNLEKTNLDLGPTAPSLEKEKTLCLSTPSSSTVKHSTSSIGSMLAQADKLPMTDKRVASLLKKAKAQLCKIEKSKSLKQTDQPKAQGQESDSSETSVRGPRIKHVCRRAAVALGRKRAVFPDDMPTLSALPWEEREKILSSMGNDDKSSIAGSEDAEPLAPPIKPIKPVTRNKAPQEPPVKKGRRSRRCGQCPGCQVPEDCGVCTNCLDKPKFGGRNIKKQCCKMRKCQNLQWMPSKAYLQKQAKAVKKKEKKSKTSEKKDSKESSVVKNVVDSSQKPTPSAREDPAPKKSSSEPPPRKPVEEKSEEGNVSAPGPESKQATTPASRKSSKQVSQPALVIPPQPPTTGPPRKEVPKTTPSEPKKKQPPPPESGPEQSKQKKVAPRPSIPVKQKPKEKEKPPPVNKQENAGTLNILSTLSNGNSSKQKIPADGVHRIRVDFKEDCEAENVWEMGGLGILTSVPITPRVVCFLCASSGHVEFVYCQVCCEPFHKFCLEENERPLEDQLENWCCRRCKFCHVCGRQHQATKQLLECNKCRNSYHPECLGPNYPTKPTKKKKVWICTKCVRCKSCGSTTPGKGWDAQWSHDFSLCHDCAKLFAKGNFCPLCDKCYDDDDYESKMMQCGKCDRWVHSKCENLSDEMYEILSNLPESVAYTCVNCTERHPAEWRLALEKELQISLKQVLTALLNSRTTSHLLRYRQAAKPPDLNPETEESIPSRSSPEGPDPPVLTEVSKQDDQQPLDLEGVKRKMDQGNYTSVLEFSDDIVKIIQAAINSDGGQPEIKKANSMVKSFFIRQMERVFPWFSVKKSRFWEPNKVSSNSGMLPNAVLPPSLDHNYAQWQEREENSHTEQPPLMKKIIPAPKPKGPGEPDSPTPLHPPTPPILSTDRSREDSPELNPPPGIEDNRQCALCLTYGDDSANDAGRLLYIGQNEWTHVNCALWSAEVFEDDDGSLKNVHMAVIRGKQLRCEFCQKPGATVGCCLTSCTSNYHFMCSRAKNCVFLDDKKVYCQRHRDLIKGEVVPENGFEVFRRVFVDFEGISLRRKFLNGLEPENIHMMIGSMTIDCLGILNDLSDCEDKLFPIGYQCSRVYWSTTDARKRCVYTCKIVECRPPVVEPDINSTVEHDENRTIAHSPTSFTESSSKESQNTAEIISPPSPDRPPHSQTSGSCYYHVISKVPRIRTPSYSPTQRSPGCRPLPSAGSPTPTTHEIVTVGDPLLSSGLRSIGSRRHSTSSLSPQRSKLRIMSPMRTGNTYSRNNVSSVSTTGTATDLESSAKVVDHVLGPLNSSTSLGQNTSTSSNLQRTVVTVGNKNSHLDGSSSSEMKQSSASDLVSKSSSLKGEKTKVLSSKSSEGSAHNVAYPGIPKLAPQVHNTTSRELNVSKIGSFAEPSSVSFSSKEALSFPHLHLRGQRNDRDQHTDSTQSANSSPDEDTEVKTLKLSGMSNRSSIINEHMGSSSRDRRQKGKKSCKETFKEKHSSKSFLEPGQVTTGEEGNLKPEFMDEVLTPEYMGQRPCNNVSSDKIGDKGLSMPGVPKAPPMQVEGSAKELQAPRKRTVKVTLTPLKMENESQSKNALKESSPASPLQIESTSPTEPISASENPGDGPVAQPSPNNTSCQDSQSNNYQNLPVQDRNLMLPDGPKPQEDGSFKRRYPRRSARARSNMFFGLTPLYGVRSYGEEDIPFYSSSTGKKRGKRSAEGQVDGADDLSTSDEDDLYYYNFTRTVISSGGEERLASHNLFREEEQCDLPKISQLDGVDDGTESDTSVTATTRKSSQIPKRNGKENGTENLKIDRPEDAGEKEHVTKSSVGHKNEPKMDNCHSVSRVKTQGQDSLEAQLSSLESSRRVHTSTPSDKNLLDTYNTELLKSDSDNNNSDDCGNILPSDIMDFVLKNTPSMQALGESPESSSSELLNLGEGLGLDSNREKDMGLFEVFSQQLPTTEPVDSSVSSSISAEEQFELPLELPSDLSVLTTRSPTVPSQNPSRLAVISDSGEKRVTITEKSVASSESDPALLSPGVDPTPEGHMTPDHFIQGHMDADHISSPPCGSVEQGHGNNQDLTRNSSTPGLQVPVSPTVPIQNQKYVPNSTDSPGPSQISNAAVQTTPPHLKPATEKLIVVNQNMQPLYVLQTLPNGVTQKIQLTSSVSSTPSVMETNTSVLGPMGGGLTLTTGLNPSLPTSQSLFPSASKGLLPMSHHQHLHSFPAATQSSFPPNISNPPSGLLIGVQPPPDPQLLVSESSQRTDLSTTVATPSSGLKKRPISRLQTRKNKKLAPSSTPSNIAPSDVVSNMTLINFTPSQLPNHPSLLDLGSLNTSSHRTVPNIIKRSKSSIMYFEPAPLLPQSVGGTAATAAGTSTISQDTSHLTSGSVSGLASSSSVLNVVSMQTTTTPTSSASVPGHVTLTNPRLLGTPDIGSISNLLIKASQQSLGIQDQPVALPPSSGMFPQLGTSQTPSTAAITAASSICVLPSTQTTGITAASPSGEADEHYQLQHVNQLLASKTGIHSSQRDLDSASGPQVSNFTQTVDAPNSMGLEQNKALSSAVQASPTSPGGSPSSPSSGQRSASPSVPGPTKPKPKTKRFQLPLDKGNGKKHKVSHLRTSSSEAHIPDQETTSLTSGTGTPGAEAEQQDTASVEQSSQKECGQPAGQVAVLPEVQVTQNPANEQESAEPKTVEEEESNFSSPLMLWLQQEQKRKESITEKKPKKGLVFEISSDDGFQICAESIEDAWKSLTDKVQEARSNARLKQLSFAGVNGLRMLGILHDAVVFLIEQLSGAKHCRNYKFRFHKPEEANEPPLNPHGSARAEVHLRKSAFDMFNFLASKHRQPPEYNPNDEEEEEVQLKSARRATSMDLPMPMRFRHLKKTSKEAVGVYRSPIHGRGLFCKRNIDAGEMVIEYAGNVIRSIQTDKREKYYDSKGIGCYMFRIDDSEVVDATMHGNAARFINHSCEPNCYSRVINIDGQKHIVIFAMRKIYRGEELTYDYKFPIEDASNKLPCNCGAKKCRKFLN

biological target: Histone-lysine N-methyltransferase 2A (Homo sapiens) (UniProt Q03164); experiment: qHTS Fluorescence Polarization Assay for Inhibitors of MLL CXXC domain - DNA interaction; settings: MLL-CXXC / FITC-HOXA9 DNA fluorescence polarization; activity change, negative = inhibition: at 115 µM (top of the series)
Summary of the method: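 Fluorescence polarization: 7 uM MLL-CXXC (stock) preincubated 5 min with compounds, then 50 nM fluorescein-HOX-A9 DNA (stock) added; 30 min ambient. Buffer 50 mM Tris-HCl pH 7.5, 50 mM NaCl, 1 mM DTT, 0.05% BSA.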
Potency means the concentration at half of the fitted maximal effect.

Structure (SMILES) | Potency | activity change, negative = inhibition
CC1C(=O)Nc2ccccc2N1C(=O)c1ccc(O)cc1 (centres undefined) | inconclusive: 3.16 µM [fluorescent, side channel, full curve] | –
CCOC(=O)c1c(NC(=O)CSc2nnc(C)c(=O)[nH]2)sc2c1CCCC2 | inconclusive: 35.5 µM [inhibitor, single point] | –
COc1ccc(CN(C)C(=O)CNC(=O)Cc2cccc3ccccc23)c(OC)c1OC | inconclusive: 1.58 µM [quencher, side channel, partial curve, poor fit] | –
COc1ccc(NC(=O)CSc2nnc(NC(C)=O)s2)c([N+](=O)[O-])c1 | inconclusive: 35.5 µM [inhibitor, partial curve] | –
CN1CCS/C1=C/C=C1\SC(=S)N(CC(=O)O)C1=O | inconclusive: 15.8 µM [fluorescent, side channel, partial curve] | –
Clc1ccc(OCc2noc(-c3ccsc3)n2)c(Cl)c1 | inconclusive: 70.8 µM [quencher, side channel, single point] | –
CC1(C)CC(NC(=O)c2ccccn2)CC(C)(C)N1O | inconclusive: 35.5 µM [fluorescent, side channel, single point] | –
CC(C)c1ccc(OC(=O)c2cccc(S(=O)(=O)N3CCN(C)CC3)c2)cc1 | inconclusive: 63.1 µM [quencher, side channel, single point] | –
CCCN(CCC)CCCNC(=O)c1cc2c(-c3ccc(OC)c(OC)c3)nn(C)c2s1 | inconclusive: 31.6 µM [quencher, side channel, single point] | –
CSc1nc(S(=O)(=O)c2ccccc2)c(Cl)s1 | inconclusive: 89.1 µM [inhibitor, single point] | –
Cc1ccc(-c2nn(-c3ccccc3)cc2/C=C2\SC(=S)N(CCCCCC(=O)O)C2=O)o1 | inconclusive: 39.8 µM [fluorescent, side channel, partial curve] | –
NC(=O)SCC(=O)Nc1ccccc1C(=O)O | inconclusive: 63.1 µM [fluorescent, side channel, single point] | –
CCOC(=O)C1CCN(c2ncnc3c2cnn3C)CC1 | inconclusive: 5.62 µM [inhibitor, partial curve] | –
COc1ccc(S(=O)(=O)Nc2ccc(Cc3ccncc3)cc2)cc1C | – | inactive: 14.8%
N#C/C(=N\Nc1ccc(Br)cc1)C(=N)N1CCOCC1 | inconclusive: 89.1 µM [fluorescent, side channel, single point] | –
Oc1[nH]c2ccccc2c1N=Nc1ccccc1 | inconclusive: 70.8 µM [fluorescent, side channel, partial curve] | –
O=C(c1ccc(F)cc1)N1CCN(C2CCC(c3ccccc3)CC2)CC1 (centres undefined) | – | inactive: -0.224%
Cc1ccc(-c2c(CC(=O)O)c(C)nc3sc4c(c23)CCCC4)cc1 | inconclusive: 70.8 µM [fluorescent, side channel, single point] | –
O=C(Nc1cccc(Cl)c1)Nc1cc(S(=O)(=O)N2CCOCC2)ccc1N1CCCC1 | inconclusive: 15.8 µM [fluorescent, side channel, single point] | –
CC(C)N1CC(O)=C(c2nc3ccccc3c(=O)[nH]2)C1=N | – | inactive: -2.36%

Structure (SMILES) | Potency | activity change, negative = inhibition
Cc1ccc(SCC(=O)Nc2ccc(C(=O)Nc3ccc(O)cc3)cc2)cc1 | inconclusive: 14.1 µM [fluorescent, side channel, single point] | –
CCN(CC(=O)Nc1c(F)cccc1F)C(=O)CCCc1c[nH]c2ccccc12 | inconclusive: 10 µM [fluorescent, side channel, single point] | –
O=C(NCCN1CCOCC1)C(=O)NCC1OCCCN1S(=O)(=O)c1cc(F)ccc1F (centres undefined) | – | inactive: -1.74%
CN1CCN(/N=C/c2ccc(N(c3ccccc3)c3ccccc3)cc2)CC1 | – | inactive: -19.6%
Cc1ccc2[nH]c(C)c(/C=C/c3cc[n+](C)cc3)c2c1 | inconclusive: 15.8 µM [fluorescent, side channel, single point] | –
CCOC(=O)c1ccccc1NC(=O)c1n[nH]c(=O)c2ccccc12 | inconclusive: 1.12 µM [fluorescent, side channel, full curve, poor fit] | –
Cn1c(SCC(=O)Nc2sccc2C(N)=O)nnc1-c1ccncc1 | inconclusive: 0.891 µM [inhibitor, full curve] | –
C=CCN(CC=C)C(=O)COC(=O)c1ccc(Sc2ncn[nH]2)c([N+](=O)[O-])c1 | inconclusive: 89.1 µM [inhibitor, single point] | –
O=C(N/N=C/c1cc(Cl)ccc1O)c1cccnc1 | – | inactive: 192%
COCc1nnc(NC(=O)CCS(=O)(=O)c2ccccc2)s1 | inconclusive: 70.8 µM [fluorescent, side channel, single point] | –
CN(C)CCCN(C(=O)c1ccc([N+](=O)[O-])s1)c1nc2cc3c(cc2s1)OCCO3 | inconclusive: 39.8 µM [quencher, side channel, single point] | –
COc1ccccc1Nc1nc2nonc2nc1N1CCCCC1C (centres undefined) | inconclusive: 8.91 µM [fluorescent, side channel, full curve] | –
COc1cccc(Nc2nc(-c3ccccc3O)nc3ccccc23)c1 | inconclusive: 39.8 µM [fluorescent, side channel, partial curve] | –
COCC1CCN(C(=O)C2CCC(=O)N(Cc3cccc(F)c3)C2)CC1 (centres undefined) | inconclusive: 14.1 µM [fluorescent, side channel, single point] | –
COc1ccc(S(=O)(=O)N2CCCOC2CNC(=O)C(=O)NCCc2ccco2)cc1 (centres undefined) | – | inconclusive: 1.91% [phenotype inactive]
COc1ccc(C2C(C#N)=C(N)N3C(=C2C#N)Sc2ccccc23)cc1 (centres undefined) | inconclusive: 31.6 µM [inhibitor, single point] | –
O=C(O)C1Nc2c(C(=O)N3CCOCC3)cccc2C2C=CCC12 (centres undefined) | – | inactive: -23.8%
CC(C(=O)O)N1C(=O)/C(=C/C=C/c2ccco2)SC1=S (centres undefined) | – | inactive: 8.06%
COc1ccc([N+](=O)[O-])cc1N(CC(=O)NCCCOC(C)C)S(C)(=O)=O | inconclusive: 1.26 µM [fluorescent, side channel, full curve, poor fit] | –

In the list so far, these have a nitro group on carbon.
Structure (SMILES) | Potency | activity change, negative = inhibition
COc1ccc(NC(=O)CSc2nnc(NC(C)=O)s2)c([N+](=O)[O-])c1 | inconclusive: 35.5 µM [inhibitor, partial curve] | –
C=CCN(CC=C)C(=O)COC(=O)c1ccc(Sc2ncn[nH]2)c([N+](=O)[O-])c1 | inconclusive: 89.1 µM [inhibitor, single point] | –
CN(C)CCCN(C(=O)c1ccc([N+](=O)[O-])s1)c1nc2cc3c(cc2s1)OCCO3 | inconclusive: 39.8 µM [quencher, side channel, single point] | –
COc1ccc([N+](=O)[O-])cc1N(CC(=O)NCCCOC(C)C)S(C)(=O)=O | inconclusive: 1.26 µM [fluorescent, side channel, full curve, poor fit] | –
